The values that follow come from PMC10458893, “Design of Protegrin-1 Analogs with Improved Antibacterial Selectivity” (Pharmaceutics, 2023).

The test system of this data set is all the test strains. The format is cell-based. The following applies: 128 μM used for MHC when less than 2% hemolysis at 64 μM. The protocol: The antimicrobial activity of the peptides was determined using two-fold serial dilutions in sterile 96-well flat-bottom polystyrene microplates (Eppendorf, Hamburg, Germany) (Cat. No. 0030730011), as previously described. The following strains of bacteria were used: E. coli ATCC 25922, E. coli ML35p (ATCC collection), E. coli BW 25113 (Keio collection), Pseudomonas aeruginosa PAO1 (ATCC collection), P. aeruginosa ATCC 27853, Klebsiella pneumoniae ATCC 700603, Staphylococcus aureus 209P (ATCC collection), S. aureus ATCC 29213, and Micrococcus luteus B-1314 (VKM collection). Acinetobacter baumannii (strain XDR CI 2675) was provided by the I.M. Sechenov First Moscow State Medical University hospital. After a 24 h incubation period, the metabolic activity of the bacteria was assessed by adding 20 µL of a redox indicator, resazurin (Sigma-Aldrich, St. Louis, MO, USA), at a concentration of 0.1 mg/mL, to the wells. The plate was then incubated for a further two hours. The minimum inhibitory concentration (MIC) was determined as the lowest concentration of the peptide at which no color change in the resazurin indicator was observed. The results were presented as median values, which were determined based on at least three independent experiments carried out in triplicate.

Positions of bridges follow the written chain, without caps; N, C: chain ends. Residues, ends and D or L forms follow the SMILES beside them.

For `CC(C)C[C@H](NC(=O)[C@H](CCCNC(=N)N)NC(=O)CNC(=O)CNC(=O)[C@@H](N)CCCNC(=N)N)C(=O)N[C@H]1CSSC[C@@H](C(=O)N[C@H](C(=O)NCC(=O)N[C@@H](CCCNC(=N)N)C(=O)O)C(C)C)NC(=O)[C@H](C(C)C)NC(=O)[C@@H]2CSSC[C@H](NC(=O)[C@H]([C@@H](C)O)NC1=O)C(=O)N[C@@H](CCCNC(=N)N)C(=O)N[C@@H](CCCNC(=N)N)C(=O)N[C@@H](CCCNC(=N)N)C(=O)N[C@@H](Cc1ccccc1)C(=O)N2` [[Y7T]] (H-RGGRLCTCRRRFCVCVGR-OH; disulfide 6-15, 8-13; N-terminus and C-terminus assumed), the “TI, therapeutic index (ratio of the MHC to the MIC (GM))” value is reported as 7.6.
